Experimental data as given in the supplement of paper PMC10973195.
± gives the standard deviation of the averaged measurements. The list shows a part of the results. Values are raw readings; no control value is given beside them.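 A neuron, microglia and astrocyte co-culture models inflammatory neurodegeneration: bacterial LPS drives microglia-dependent neuron loss. Each compound was tested against DMSO vehicle wells on the same plates; BAY61-3606, a SYK inhibitor, was the reference neuroprotective control.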

What follows are molecules tested on rat primary cerebellar neuron-glia coculture (assay: live neuron count (NeuO+) per image field (cells per field); higher = more surviving neurons). Conditions: LPS 0 ng/mL; 1 µM; treatment time 3 days.
Description: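 Primary rat (P3-7) cerebellar neuron-glia cocultures in 384-well plates were treated at DIV7 with 1 uM compound, then with or without 100 ng/mL LPS 30 min later, for 3 days. At DIV10 live cells were stained with Hoechst 33342, NeuO (live neurons), IB4-AF594 (microglia) and DRAQ7 (necrotic cells) and imaged at 10x (4 fields per well, IN Cell Analyzer 6000). Cells were classified with Cellpose/CellProfiler plus a Random Trees classifier. Values are per-well mean counts per image field (raw, not min-max normalised) and the median microglial FormFactor per image. Three technical replicates per repeat across 4 biological repeats; DMSO and BAY61-3606 serve as controls.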

Structure (SMILES) | live neuron count
Clc1ccc(OC[C@H]2CCN2)cn1 | 2680 ± 430
N#Cc1nn(-c2c(Cl)cc(C(F)(F)F)cc2Cl)c(N)c1[S+]([O-])C(F)(F)F (configuration not stated) | 1910 ± 440
C[C@]12CC[C@H](O)C[C@H]1CC[C@@H]1[C@@H]2CC[C@]2(C)[C@@H](C3=CC(=O)OC3)CC[C@]12O | 2670 ± 360
C[N+]1(C)CCO[C@@](O)(c2ccc(-c3ccc([C@@]4(O)C[N+](C)(C)CCO4)cc3)cc2)C1 | 2620 ± 530
O=C1CCCC2[C@H]3CNC[C@H](C3)CN12 (some centres not stated) | 2680 ± 460
Clc1ccc2c(c1Cl)CNCC2 | 2660 ± 520

Same assay, conditions: LPS 100 ng/mL; 1 µM; treatment time 3 days

Structure (SMILES) | live neuron count
Clc1ccc(OC[C@H]2CCN2)cn1 | 333 ± 270
N#Cc1nn(-c2c(Cl)cc(C(F)(F)F)cc2Cl)c(N)c1[S+]([O-])C(F)(F)F (configuration not stated) | 492 ± 510
C[C@]12CC[C@H](O)C[C@H]1CC[C@@H]1[C@@H]2CC[C@]2(C)[C@@H](C3=CC(=O)OC3)CC[C@]12O | 360 ± 420
C[N+]1(C)CCO[C@@](O)(c2ccc(-c3ccc([C@@]4(O)C[N+](C)(C)CCO4)cc3)cc2)C1 | 234 ± 230
O=C1CCCC2[C@H]3CNC[C@H](C3)CN12 (some centres not stated) | 593 ± 650
Clc1ccc2c(c1Cl)CNCC2 | 372 ± 580
